Measured values taken from US20050097626A1.
Results are given in words; binding and its absence hold for the method and conditions named. In cells and extracts the contact can be indirect. Some binding calls cover weakened binding; strength is not graded here.

Key:
[1] = biological target: p53 (human) (UniProt P04637); experiment: co-immunoprecipitation from transfected RKO cells (legend of FIG. 10)
[2] = biological target: p53 (human) (UniProt P04637); experiment: co-immunoprecipitation with anti-ING4 antibody from lysate of RKO cells transfected with pcDNA3.1-ING4, Western blot for p53
[3] = biological target: p53 (human) (UniProt P04637); experiment: co-immunoprecipitation with anti-ING5 antibody from lysate of RKO cells transfected with pcDNA3.1-ING5, Western blot for p53
[4] = biological target: p53 (human) (UniProt P04637); experiment: reverse co-immunoprecipitation with anti-p53 antibodies DO-1 and PAb240 from transfected RKO cells, Western blot with anti-FLAG

binding [1] | binding [2] | binding [3] | binding [4] | Substance
binds | binds |  |  | p29ING4 (from UniProt Q9UNL4 1-249)
binds |  | binds |  | p28ING5 (from UniProt Q8WYH8 1-240)
 |  |  | binds | FLAG-ING4 (from UniProt Q9UNL4 1-249)
 |  |  | binds | FLAG-ING5 (from UniProt Q8WYH8 1-240)
